{"source": "PubChem BioAssay AID1508588 | Peter MacCallum Cancer Centre – 2020", "assay": "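Genome-wide search for knock-downs that heighten vemurafenib action in melanoma cells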 (primary screen)", "cells": "human WM266.4 melanoma cells (BRAF V600 mutant)", "reagent": "siRNA pool against human genes, 40 nM", "duration": "96 h from transfection to read-out", "challenge": "vemurafenib 300 nM (about IC25), added 48 h after transfection, for 48 h; comparison arm got DMSO vehicle only", "measurement": "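Ratios to non-targeting siRNA for cell gain, counted as DAPI nuclei after minus before drug and averaged over two replicates, and for absorbance-read medium lactate per cell; both binned into fold-change classes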", "scale": "cell gain with vemurafenib: higher = more cell gain than with non-targeting siRNA; lactate per cell with vemurafenib: higher = more lactate made per cell", "call rule": "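a knock-down counts as enhancing when its fold-change classes with vehicle and with vemurafenib, taken together, show a stronger drug effect on cell gain or lactate per cell; exact class pairs not stated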", "calls": "active = enhances vemurafenib effect; inactive = no enhancement seen", "note": "Shown is an unselected part of about 18,000 reagents tested. Over the whole deposit, 790 (4.4%) were called active. 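Calls rest on a combination of fold-change classes in drug and vehicle arms, not all shown here.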 A number with no mark means an inactive call."}
{"gene symbol":"SOCS4","cell gain with vemurafenib":"1.04 (active)","lactate per cell with vemurafenib":0.38}
{"gene symbol":"EPHB4","cell gain with vemurafenib":1.24,"lactate per cell with vemurafenib":0.84}
{"gene symbol":"FBXO15","cell gain with vemurafenib":0.8,"lactate per cell with vemurafenib":0.82}
{"gene symbol":"MED12L","cell gain with vemurafenib":0.6,"lactate per cell with vemurafenib":1.84}
{"gene symbol":"PIP4P2","cell gain with vemurafenib":0.75,"lactate per cell with vemurafenib":0.98}
{"gene symbol":"CLEC7A","cell gain with vemurafenib":"0.6 (active)","lactate per cell with vemurafenib":0.44}
{"gene symbol":"WDR46","cell gain with vemurafenib":0.45,"lactate per cell with vemurafenib":1.13}
{"gene symbol":"HERC1","cell gain with vemurafenib":0.54,"lactate per cell with vemurafenib":0.57}
{"gene symbol":"E2F5","cell gain with vemurafenib":0.9,"lactate per cell with vemurafenib":0.58}
{"gene symbol":"TSPAN12","cell gain with vemurafenib":0.69,"lactate per cell with vemurafenib":0.91}
{"gene symbol":"PDCD2L","cell gain with vemurafenib":0.77,"lactate per cell with vemurafenib":0.96}
{"gene symbol":"PRRG4","cell gain with vemurafenib":0.61,"lactate per cell with vemurafenib":0.38}
{"gene symbol":"RARRES2","cell gain with vemurafenib":0.96,"lactate per cell with vemurafenib":0.68}
{"gene symbol":"IL17F","cell gain with vemurafenib":0.23,"lactate per cell with vemurafenib":1.25}
{"gene symbol":"LYSMD4","cell gain with vemurafenib":"0.85 (active)","lactate per cell with vemurafenib":0.48}
{"gene symbol":"IQSEC2","cell gain with vemurafenib":0.93,"lactate per cell with vemurafenib":0.8}
{"gene symbol":"NFIB","cell gain with vemurafenib":0.69,"lactate per cell with vemurafenib":0.43}
{"gene symbol":"OR2G3","cell gain with vemurafenib":0.65,"lactate per cell with vemurafenib":0.73}
{"gene symbol":"CDH4","cell gain with vemurafenib":0.43,"lactate per cell with vemurafenib":1.2}
{"gene symbol":"HSPA9","cell gain with vemurafenib":0.34,"lactate per cell with vemurafenib":2.5}
{"gene symbol":"KSR2","cell gain with vemurafenib":0.59,"lactate per cell with vemurafenib":1.27}

Only “lactate per cell with vemurafenib”, for 3 of the entries above:
WDR46	1.13
HERC1	0.57
E2F5	0.58

The results go on:
{"gene symbol":"CYP26A1","cell gain with vemurafenib":0.76,"lactate per cell with vemurafenib":1.2}
{"gene symbol":"KLHL13","cell gain with vemurafenib":0.78,"lactate per cell with vemurafenib":0.72}
{"gene symbol":"LRRC3B","cell gain with vemurafenib":1,"lactate per cell with vemurafenib":0.64}
{"gene symbol":"CYP4A22","cell gain with vemurafenib":0.74,"lactate per cell with vemurafenib":0.79}
{"gene symbol":"NRP1","cell gain with vemurafenib":"0.76 (active)","lactate per cell with vemurafenib":0.42}
{"gene symbol":"MATK","cell gain with vemurafenib":0.99,"lactate per cell with vemurafenib":1.08}
{"gene symbol":"UTP14A","cell gain with vemurafenib":0.81,"lactate per cell with vemurafenib":1.49}
{"gene symbol":"SPTAN1","cell gain with vemurafenib":0.4,"lactate per cell with vemurafenib":0.72}
{"gene symbol":"CNTN3","cell gain with vemurafenib":0.42,"lactate per cell with vemurafenib":1.09}
{"gene symbol":"MIB2","cell gain with vemurafenib":1,"lactate per cell with vemurafenib":0.78}
{"gene symbol":"CARMIL3","cell gain with vemurafenib":0.75,"lactate per cell with vemurafenib":1.37}
{"gene symbol":"PDILT","cell gain with vemurafenib":0.9,"lactate per cell with vemurafenib":0.89}
{"gene symbol":"KCTD18","cell gain with vemurafenib":"0.5 (active)","lactate per cell with vemurafenib":0.43}
{"gene symbol":"POP4","cell gain with vemurafenib":0.53,"lactate per cell with vemurafenib":0.3}
{"gene symbol":"TMEM132A","cell gain with vemurafenib":0.61,"lactate per cell with vemurafenib":0.74}
{"gene symbol":"MMP20","cell gain with vemurafenib":0.65,"lactate per cell with vemurafenib":1.45}
{"gene symbol":"NELL1","cell gain with vemurafenib":0.67,"lactate per cell with vemurafenib":1.28}
{"gene symbol":"SLC25A14","cell gain with vemurafenib":0.29,"lactate per cell with vemurafenib":1.08}
{"gene symbol":"OARD1","cell gain with vemurafenib":0.43,"lactate per cell with vemurafenib":0.76}
